Some of the results follow.
Legend:
Assay in all cases: log2 fold change, soluble protein after heating vs DMSO (PISA); higher = thermal stabilisation; K562 lysate, 10 uM; active = over 0.2 and 3.5 SD of the protein, either way, in both replicates (recomputed)
[1] = compound: C#Cc1cccc(Nc2ncnc3cc(OCCOC)c(OCCOC)cc23)c1 [erlotinib]
Method in brief: (§1)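 Log-two fold change in thermal stability relative to solvent controls is reported from duplicates. For each sample, crude K562 extract from dounce-homogenised pellets in PBS pH 7.4 with 1 mM MgCl2, at 1 mg/mL protein, was treated with 10 μM compound for 30 min. Aliquots heated for 3 min across 48°C-58°C were pooled, brought to 0.5% NP-40 at 4°C and cleared at 21,000xg for 90 min. The supernatant was quantified by TMTpro 16plex LC-MS/MS with channel sums equalised.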

Protein sequences, listed by entry. Tags and fused reporters are not part of them. Lines headed by an entry give the natural chain unless they say otherwise; changes in a name come on top.
UniProt O75817: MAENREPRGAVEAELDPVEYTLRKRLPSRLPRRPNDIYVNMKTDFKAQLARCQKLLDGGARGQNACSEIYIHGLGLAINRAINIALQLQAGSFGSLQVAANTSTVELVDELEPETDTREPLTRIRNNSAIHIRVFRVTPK
UniProt Q15165: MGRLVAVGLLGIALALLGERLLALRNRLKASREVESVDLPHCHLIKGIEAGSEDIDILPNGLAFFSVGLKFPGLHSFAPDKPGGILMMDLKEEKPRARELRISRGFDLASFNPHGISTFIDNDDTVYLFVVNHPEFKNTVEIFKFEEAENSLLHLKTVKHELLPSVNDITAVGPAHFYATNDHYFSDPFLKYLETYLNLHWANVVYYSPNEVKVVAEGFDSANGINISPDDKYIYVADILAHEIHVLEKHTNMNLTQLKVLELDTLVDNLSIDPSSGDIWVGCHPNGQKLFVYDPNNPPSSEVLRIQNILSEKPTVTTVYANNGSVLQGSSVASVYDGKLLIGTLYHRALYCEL
UniProt O94903: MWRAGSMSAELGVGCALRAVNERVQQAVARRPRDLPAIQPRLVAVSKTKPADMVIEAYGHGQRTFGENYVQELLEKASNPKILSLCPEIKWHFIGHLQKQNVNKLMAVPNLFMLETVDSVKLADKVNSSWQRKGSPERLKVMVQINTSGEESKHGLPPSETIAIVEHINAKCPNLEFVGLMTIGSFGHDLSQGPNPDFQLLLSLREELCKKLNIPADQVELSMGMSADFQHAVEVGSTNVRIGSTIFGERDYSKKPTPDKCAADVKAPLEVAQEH
UniProt Q9Y244: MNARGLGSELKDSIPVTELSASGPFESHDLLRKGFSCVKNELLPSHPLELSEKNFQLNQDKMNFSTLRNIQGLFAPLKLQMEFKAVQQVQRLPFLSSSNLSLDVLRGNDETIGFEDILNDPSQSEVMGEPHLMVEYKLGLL
UniProt Q08752, whole entry, looked up: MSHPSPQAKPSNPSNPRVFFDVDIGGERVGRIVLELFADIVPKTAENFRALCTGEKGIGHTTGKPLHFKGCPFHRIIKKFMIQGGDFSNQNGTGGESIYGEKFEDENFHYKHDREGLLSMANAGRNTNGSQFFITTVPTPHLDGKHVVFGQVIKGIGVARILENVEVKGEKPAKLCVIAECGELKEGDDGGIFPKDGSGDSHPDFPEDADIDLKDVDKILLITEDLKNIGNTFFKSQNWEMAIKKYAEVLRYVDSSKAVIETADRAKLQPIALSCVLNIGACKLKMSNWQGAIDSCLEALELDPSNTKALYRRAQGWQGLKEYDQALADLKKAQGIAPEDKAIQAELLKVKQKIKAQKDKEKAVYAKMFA
UniProt P16435: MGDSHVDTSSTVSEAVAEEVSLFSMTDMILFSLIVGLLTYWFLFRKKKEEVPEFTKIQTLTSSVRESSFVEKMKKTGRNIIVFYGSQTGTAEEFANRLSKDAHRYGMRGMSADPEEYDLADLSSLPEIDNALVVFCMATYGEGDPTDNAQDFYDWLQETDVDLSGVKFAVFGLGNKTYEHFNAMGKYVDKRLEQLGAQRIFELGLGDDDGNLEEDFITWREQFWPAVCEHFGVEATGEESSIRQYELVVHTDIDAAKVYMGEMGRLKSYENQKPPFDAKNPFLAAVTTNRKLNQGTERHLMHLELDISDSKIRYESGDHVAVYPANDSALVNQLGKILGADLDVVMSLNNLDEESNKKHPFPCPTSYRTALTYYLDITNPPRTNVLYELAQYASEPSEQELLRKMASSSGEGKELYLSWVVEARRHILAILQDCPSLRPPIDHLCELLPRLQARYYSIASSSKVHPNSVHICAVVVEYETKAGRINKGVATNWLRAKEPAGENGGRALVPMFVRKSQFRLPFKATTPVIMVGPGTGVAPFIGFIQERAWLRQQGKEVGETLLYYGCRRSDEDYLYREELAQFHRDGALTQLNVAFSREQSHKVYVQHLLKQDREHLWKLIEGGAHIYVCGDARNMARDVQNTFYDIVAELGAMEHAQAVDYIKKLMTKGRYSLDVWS
UniProt Q14651: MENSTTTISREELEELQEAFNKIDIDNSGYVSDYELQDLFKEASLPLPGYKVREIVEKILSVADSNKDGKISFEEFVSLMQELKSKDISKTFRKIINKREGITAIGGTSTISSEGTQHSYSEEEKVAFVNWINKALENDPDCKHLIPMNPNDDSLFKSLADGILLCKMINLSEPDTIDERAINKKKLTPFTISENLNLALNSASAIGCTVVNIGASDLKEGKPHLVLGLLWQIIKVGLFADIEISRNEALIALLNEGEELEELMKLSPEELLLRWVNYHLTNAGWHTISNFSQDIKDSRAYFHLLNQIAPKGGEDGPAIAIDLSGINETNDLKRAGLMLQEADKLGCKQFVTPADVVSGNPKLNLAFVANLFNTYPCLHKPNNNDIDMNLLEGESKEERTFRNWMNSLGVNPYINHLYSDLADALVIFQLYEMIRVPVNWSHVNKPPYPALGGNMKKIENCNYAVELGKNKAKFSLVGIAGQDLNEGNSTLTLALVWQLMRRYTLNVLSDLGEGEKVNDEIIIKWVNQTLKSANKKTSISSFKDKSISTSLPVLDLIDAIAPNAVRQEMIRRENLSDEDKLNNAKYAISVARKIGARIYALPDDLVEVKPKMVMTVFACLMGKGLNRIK
UniProt Q9NZ53: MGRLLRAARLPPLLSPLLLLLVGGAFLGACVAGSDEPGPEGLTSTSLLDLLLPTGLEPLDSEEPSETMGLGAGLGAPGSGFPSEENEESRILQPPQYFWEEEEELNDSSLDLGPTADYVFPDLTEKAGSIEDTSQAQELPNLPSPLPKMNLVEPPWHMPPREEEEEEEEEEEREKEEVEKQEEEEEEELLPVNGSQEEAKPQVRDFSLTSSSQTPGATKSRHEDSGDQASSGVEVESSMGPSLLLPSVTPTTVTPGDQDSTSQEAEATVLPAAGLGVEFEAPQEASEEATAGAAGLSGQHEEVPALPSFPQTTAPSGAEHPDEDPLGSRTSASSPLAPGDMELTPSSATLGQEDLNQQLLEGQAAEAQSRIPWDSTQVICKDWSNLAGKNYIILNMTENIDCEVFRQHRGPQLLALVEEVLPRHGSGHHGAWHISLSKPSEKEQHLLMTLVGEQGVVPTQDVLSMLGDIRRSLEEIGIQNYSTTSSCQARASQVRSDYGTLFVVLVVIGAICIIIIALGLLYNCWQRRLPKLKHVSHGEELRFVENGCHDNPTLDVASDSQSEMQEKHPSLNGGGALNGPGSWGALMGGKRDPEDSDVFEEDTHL
UniProt P09884: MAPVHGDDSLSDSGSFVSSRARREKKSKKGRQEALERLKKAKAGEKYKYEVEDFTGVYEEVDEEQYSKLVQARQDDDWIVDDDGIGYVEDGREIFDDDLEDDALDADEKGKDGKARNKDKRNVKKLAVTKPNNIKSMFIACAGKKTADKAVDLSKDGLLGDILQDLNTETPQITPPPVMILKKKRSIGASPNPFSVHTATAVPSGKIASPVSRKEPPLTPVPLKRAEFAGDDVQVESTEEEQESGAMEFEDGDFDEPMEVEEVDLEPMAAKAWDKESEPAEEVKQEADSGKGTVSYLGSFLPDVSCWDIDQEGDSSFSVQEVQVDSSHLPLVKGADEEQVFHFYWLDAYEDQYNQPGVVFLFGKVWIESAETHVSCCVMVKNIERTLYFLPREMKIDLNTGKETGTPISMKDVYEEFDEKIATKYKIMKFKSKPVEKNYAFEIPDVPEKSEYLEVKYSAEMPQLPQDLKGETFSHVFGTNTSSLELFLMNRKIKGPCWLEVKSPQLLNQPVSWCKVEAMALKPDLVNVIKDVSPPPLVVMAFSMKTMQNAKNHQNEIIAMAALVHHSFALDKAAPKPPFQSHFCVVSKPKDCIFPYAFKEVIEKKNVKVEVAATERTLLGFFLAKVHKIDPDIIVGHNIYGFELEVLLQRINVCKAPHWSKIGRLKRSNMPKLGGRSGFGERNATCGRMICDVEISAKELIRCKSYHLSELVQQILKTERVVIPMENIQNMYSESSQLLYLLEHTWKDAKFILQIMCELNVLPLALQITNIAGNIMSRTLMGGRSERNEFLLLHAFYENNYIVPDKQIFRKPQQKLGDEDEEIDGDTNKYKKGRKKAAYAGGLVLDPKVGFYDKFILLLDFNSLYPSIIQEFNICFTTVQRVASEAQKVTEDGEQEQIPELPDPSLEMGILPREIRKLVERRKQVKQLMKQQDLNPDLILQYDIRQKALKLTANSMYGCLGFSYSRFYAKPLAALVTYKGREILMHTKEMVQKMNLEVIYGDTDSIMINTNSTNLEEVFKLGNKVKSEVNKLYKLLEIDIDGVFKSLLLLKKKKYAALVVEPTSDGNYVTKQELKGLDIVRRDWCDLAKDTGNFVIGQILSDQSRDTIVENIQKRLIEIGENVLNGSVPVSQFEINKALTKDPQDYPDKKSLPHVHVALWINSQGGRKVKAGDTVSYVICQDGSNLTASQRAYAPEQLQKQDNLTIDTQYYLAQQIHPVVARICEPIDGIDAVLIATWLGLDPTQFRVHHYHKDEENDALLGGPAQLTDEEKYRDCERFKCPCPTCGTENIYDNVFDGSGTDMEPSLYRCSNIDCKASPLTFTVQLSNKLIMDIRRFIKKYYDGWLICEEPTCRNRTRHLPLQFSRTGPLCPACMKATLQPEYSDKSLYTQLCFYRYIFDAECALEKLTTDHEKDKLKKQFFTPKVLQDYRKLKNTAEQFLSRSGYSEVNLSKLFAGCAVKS
UniProt P00747, whole entry, looked up: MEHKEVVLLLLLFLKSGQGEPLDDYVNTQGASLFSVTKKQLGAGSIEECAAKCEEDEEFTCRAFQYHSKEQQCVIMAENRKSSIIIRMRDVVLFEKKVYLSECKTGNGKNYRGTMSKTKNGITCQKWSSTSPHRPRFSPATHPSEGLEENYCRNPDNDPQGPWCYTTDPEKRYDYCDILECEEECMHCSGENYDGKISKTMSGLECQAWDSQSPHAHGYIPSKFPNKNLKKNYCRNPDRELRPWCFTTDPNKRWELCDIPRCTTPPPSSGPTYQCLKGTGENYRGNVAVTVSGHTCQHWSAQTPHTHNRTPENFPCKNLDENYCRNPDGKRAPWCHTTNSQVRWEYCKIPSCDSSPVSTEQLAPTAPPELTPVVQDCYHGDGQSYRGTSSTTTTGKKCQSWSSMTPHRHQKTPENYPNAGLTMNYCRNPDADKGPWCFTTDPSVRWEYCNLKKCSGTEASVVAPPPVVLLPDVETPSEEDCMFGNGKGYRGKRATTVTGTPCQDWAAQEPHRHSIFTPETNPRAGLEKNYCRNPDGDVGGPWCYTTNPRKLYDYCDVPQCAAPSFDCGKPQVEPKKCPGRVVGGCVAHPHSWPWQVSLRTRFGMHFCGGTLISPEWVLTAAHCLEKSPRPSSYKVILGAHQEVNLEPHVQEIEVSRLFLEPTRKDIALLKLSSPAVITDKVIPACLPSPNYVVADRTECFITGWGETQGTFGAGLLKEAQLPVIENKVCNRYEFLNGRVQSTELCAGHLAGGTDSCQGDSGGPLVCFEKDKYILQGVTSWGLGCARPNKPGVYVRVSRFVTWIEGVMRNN
UniProt A5A3E0, whole entry, looked up: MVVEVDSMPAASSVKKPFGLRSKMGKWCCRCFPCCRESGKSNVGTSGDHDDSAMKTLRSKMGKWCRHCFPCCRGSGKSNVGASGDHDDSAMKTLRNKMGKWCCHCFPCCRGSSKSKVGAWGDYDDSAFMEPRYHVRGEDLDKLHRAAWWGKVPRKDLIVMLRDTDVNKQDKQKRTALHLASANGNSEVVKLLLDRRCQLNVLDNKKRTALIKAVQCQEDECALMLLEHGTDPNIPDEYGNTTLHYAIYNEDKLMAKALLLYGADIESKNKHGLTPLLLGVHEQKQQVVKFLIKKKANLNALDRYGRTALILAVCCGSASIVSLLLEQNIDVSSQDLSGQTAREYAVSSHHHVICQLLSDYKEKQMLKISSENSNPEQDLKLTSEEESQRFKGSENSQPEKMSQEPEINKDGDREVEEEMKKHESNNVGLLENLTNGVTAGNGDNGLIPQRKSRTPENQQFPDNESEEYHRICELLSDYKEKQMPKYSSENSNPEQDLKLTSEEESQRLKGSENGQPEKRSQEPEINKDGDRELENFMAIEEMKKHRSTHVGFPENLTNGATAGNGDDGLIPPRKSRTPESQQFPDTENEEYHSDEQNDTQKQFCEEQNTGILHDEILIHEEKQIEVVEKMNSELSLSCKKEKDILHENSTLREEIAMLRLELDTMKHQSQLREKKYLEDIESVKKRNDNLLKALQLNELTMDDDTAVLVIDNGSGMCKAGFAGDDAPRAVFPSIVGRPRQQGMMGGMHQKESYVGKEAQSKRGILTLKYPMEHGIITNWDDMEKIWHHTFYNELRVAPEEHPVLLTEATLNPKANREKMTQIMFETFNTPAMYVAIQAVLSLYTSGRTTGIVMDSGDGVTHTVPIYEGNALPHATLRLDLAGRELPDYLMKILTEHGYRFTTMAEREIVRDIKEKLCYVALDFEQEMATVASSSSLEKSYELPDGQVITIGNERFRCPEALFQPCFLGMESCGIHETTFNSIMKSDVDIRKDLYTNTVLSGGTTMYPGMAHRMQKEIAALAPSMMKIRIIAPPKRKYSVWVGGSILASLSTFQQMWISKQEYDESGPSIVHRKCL

[2] = compound: C/C(=N\NC(=O)C1=CC(=CC=C1)S(=O)(=O)N2CCOCC2)/C3=C(C=CC(=C3)Cl)O
Method in brief: as §1

[3] = compound: C1=CC(=CC=C1C2=NC3=C(N2)C=C(C=C3)C(=O)N)OC4=CC=C(C=C4)Cl
Method in brief: as §1

[4] = compound: C1=CC2=C(C=CC(=C2)/C=C\3/C(=O)NC(=NCC4=CC=CS4)S3)N=C1
Method in brief: as §1

[5] = compound: C1=CC2=NC=CN=C2C=C1/C=C/3\C(=O)NC(=O)S3
Method in brief: as §1

[6] = compound: C1=CC=C(C=C1)C2=NC(=C(N2)C3=CC=NC=C3)C4=CC(=C(C=C4)Cl)O
Method in brief: as §1

[7] = compound: C1=CC=C2C(=C1)C3=NNC4=CC=CC(=C43)C2=O
Method in brief: as §1

[8] = compound: C1CCN(C1)C(=O)NC2=CC=CC(=C2)NC3=NC=C(C(=N3)NCCC4=CN=CN4)Br
Method in brief: as §1

[9] = compound: C1CN(CCC1(CC2=CC=C(C=C2)Cl)N)C3=NC=NC4=C3C=CN4
Method in brief: as §1

[10] = compound: C1COCCN1CCN2C3=CC=CC=C3N=C2NC(=O)C4=CC(=CC=C4)[N+](=O)[O-] [IRAK-1-4 Inhibitor I]
Method in brief: as §1

Measured: log2 fold change

POP7 (UniProt O75817)
inactive: [1] 0.024 | [2] -0.091 | [3] 0.075 | [4] 0.017 | [5] -0.006 | [6] -0.017 | [7] 0.031 | [8] 0.03 | [9] 0.042 | [10] 0.037

POLB (UniProt P06746)
inactive: [1] 0.012 | [2] 0.009 | [3] 0.075 | [4] 0.069 | [5] -0.022 | [6] 0.019 | [7] -0.061 | [8] -0.019 | [9] 0.026 | [10] -0.062

PON2 (UniProt Q15165)
inactive: [1] 0.024 | [2] 0.01 | [3] 0.005 | [4] -0.01 | [5] 0.114 | [6] -0.02 | [7] 0.017 | [8] -0.006 | [9] 0.005 | [10] -0.019

POLR2C (UniProt P19387)
inactive: [1] -0.03 | [2] 0.012 | [3] 0.015 | [4] 0.045 | [5] -0.017 | [6] -0.001 | [7] -0.051 | [8] 0.044 | [9] 0.024 | [10] 0.002

POLR2D (UniProt O15514)
inactive: [1] -0.07 | [2] 0.016 | [3] -0.005 | [4] -0.072 | [5] 0.035 | [6] -0.003 | [7] 0.167 | [8] 0.014 | [9] 0.104 | [10] 0.017

POTEI (UniProt P0CG38)
inactive: [1] 0.016 | [2] 0.005 | [3] 0.001 | [4] -0.018 | [5] -0.022 | [6] -0.03 | [7] -0.02 | [8] 0.021 | [9] 0.015 | [10] 0

POLR2L (UniProt P62875)
inactive: [1] 0.089 | [2] -0.061 | [3] -0.118 | [4] 0.05 | [5] 0.179 | [6] -0.011 | [7] -0.03 | [8] -0.053 | [9] 0.132 | [10] 0.047

PLPBP (UniProt O94903)
inactive: [1] -0.014 | [2] -0.089 | [3] 0.059 | [4] -0.004 | [5] 0 | [6] -0.006 | [7] -0.033 | [8] -0.001 | [9] 0.004 | [10] -0.021

PPCDC (UniProt Q96CD2)
inactive: [1] -0.019 | [2] 0.075 | [3] 0.033 | [4] -0.115 | [5] 0.004 | [6] 0.002 | [7] -0.115 | [8] -0.05 | [9] 0.084 | [10] 0.023

POLDIP2 (UniProt Q9Y2S7)
inactive: [1] -0.022 | [2] -0.03 | [3] -0.007 | [4] 0.012 | [5] -0.022 | [6] -0.002 | [7] -0.053 | [8] 0.027 | [9] 0.031 | [10] -0.013

PLSCR1 (UniProt O15162)
inactive: [1] 0.013 | [2] 0.049 | [3] 0.004 | [4] -0.018 | [5] 0.024 | [6] 0.03 | [7] -0.024 | [8] 0.018 | [9] 0.017 | [10] 0.006

POMGNT1 isoform 2 (UniProt Q8WZA1)
inactive: [1] -0.048 | [2] 0.001 | [3] -0.093 | [4] -0.028 | [5] -0.119 | [6] 0.193 | [7] -0.066 | [8] 0.011 | [9] -0.097 | [10] 0.263

POLR2E (UniProt P19388)
inactive: [1] 0.02 | [2] 0.008 | [3] 0.011 | [4] -0.007 | [5] -0.021 | [6] 0.004 | [7] -0.084 | [8] -0.022 | [9] -0.015 | [10] 0.011

POMP (UniProt Q9Y244)
inactive: [1] 0.058 | [2] -0.022 | [3] -0.001 | [4] 0.05 | [5] -0.003 | [6] -0.024 | [7] -0.08 | [8] -0.099 | [9] 0.048 | [10] -0.023

PPID (UniProt Q08752)
inactive: [1] -0.017 | [2] -0.034 | [3] 0.008 | [4] 0.004 | [5] -0.012 | [6] -0.029 | [7] -0.019 | [8] 0 | [9] -0.003 | [10] -0.002

POLG2 (UniProt Q9UHN1)
inactive: [1] -0.015 | [2] -0.154 | [3] 0.002 | [4] 0.01 | [5] 0 | [6] -0.013 | [7] -0.018 | [8] -0.022 | [9] 0.018 | [10] 0.032

POR (UniProt P16435)
inactive: [1] -0.011 | [2] 0.004 | [3] 0.045 | [4] 0.025 | [5] -0.014 | [6] -0.008 | [7] -0.072 | [8] -0.024 | [9] 0.03 | [10] 0.004

PNN (UniProt Q9H307)
inactive: [1] -0.023 | [2] 0.003 | [3] 0.118 | [4] -0.086 | [5] -0.013 | [6] 0 | [7] 0.006 | [8] -0.008 | [9] -0.032 | [10] -0.009

Quoted at random: 2 entries already listed.
POR (UniProt P16435)
inactive: [1] -0.011 | [2] 0.004 | [3] 0.045 | [4] 0.025 | [5] -0.014 | [6] -0.008 | [7] -0.072 | [8] -0.024 | [9] 0.03 | [10] 0.004

POLG2 (UniProt Q9UHN1)
inactive: [1] -0.015 | [2] -0.154 | [3] 0.002 | [4] 0.01 | [5] 0 | [6] -0.013 | [7] -0.018 | [8] -0.022 | [9] 0.018 | [10] 0.032

Further records:

PLS1 (UniProt Q14651)
inactive: [1] 0.029 | [2] -0.086 | [3] 0.039 | [4] 0.023 | [5] 0.003 | [6] -0.004 | [7] 0.002 | [8] 0.002 | [9] 0 | [10] 0.005

POLR2A, A0A590UJN4
inactive: [1] 0.013 | [2] 0.001 | [3] 0.015 | [4] 0.003 | [5] -0.03 | [6] -0.004 | [7] -0.03 | [8] -0.014 | [9] 0.018 | [10] 0

PLIN2 (UniProt Q99541)
inactive: [1] 0.013 | [2] 0.024 | [3] -0.093 | [4] 0.004 | [5] 0.028 | [6] -0.015 | [7] -0.045 | [8] 0.021 | [9] -0.042 | [10] 0

PODXL2 (UniProt Q9NZ53)
inactive: [1] 0.027 | [2] -0.243 | [3] 0.193 | [4] -0.223 | [5] -0.062 | [6] 0.026 | [7] 0 | [8] -0.08 | [9] 0.139 | [10] -0.148

POLR2I (UniProt P36954)
inactive: [1] 0.024 | [2] 0.029 | [3] -0.089 | [4] 0.016 | [5] -0.027 | [6] -0.005 | [7] -0.004 | [10] -0.076

POU2F1 isoform 6 (UniProt P14859)
inactive: [1] -0.01 | [2] -0.045 | [3] -0.042 | [4] 0.037 | [5] 0 | [6] 0.019 | [7] 0.02 | [8] -0.003 | [9] -0.01 | [10] 0.021

POLA1 (UniProt P09884)
inactive: [1] 0.009 | [2] -0.039 | [3] -0.02 | [4] -0.015 | [5] -0.036 | [6] 0.084 | [7] -0.005 | [8] -0.034 | [9] 0.015 | [10] -0.003

PLG (UniProt P00747)
inactive: [1] 0.047 | [2] -0.501 | [3] 0.098 | [4] -0.04 | [5] -0.007 | [6] -0.025 | [7] 0.041 | [8] -0.089 | [9] -0.005 | [10] -0.003

PPFIA3 (UniProt O75145)
inactive: [1] 0.128 | [2] -0.304 | [3] -0.075 | [4] 0.007 | [5] -0.105 | [6] -0.026 | [7] 0.007 | [10] -0.013

POGLUT3 (UniProt Q7Z4H8)
inactive: [1] 0.023 | [2] -0.044 | [3] -0.025 | [4] 0.018 | [5] -0.009 | [6] -0.001 | [7] -0.04 | [8] -0.038 | [9] -0.005 | [10] -0.011

PPAT (UniProt Q06203)
inactive: [1] -0.014 | [2] -0.034 | [3] 0.027 | [4] -0.011 | [5] 0.014 | [6] 0.012 | [7] 0.024 | [8] -0.013 | [9] -0.001 | [10] 0.044

POTEF (UniProt A5A3E0)
inactive: [1] -0.006 | [2] 0.029 | [3] 0.027 | [4] 0.083 | [5] 0.019 | [6] -0.015 | [7] 0.042 | [8] -0.031 | [9] 0.049 | [10] 0.012
